# Source: PubChem BioAssay AID540256 (National Center for Advancing Translational Sciences (NCATS), 2011)
# Among all 300,000 compounds or so, about 3,700 (1.2%) were called active. The shares of active, inactive and inconclusive entries below differ from those in the screen. Calls follow the shape of the full dose curve; tested in HEK293 cells. Where the call is inconclusive, the potency comes from a doubtful curve fit. Some compounds were tested as several samples or in several runs, with calls that do not always agree.
# Assay: qHTS for Inhibitors of binding or entry into cells for Lassa Virus; also: nearly all actives have a fitted effect of over 50% in size
# Conditions: Lassa virus pseudotype entry inhibition, cell reporter; activity change, negative = inhibition: at 37.9 µM (top of the series) unless noted
# % is scaled to controls: 0 for no effect and ±100 for the full control effect; potency is read from the fitted curve at half-maximal effect.
Compound,"activity change, negative = inhibition",Potency
Cc1ccc(NC(=O)CCN2CCC(C(N)=O)CC2)cc1,inactive: -4.63% [at 46.1 µM],
O=S(=O)(c1ccc(NC(=S)Nc2ccc3c(c2)OCO3)cc1)N1CCOCC1,inactive: 14.8%,
CCOc1ccc(-c2cc(C(=O)O)c3ccccc3n2)cc1,,active: 11.6 µM
CCN(CC)CCN(C(=O)c1ccco1)c1nc2ccc(F)cc2s1,inactive: -0.129% [at 46.1 µM],
COc1ccc(C)cc1NC(=O)c1c(C)nn(Cc2ccccc2)c1Cl,,"inconclusive: 12.6 µM [inhibitor, partial curve, poor fit]"
O=C1N(Cc2cccnc2)C[C@@H]2C[C@@H](c3ccc(C(F)(F)F)cc3)N3CCC[C@@]123,inactive: -10%,
CCN(CC)S(=O)(=O)c1ccc(NC(=O)c2c(C)oc3ncnc(N4CCCCC4)c23)cc1,,"inconclusive: 35.5 µM [inhibitor, single point]"
Cc1ccc(C)c(NS(=O)(=O)c2cc(C(=O)N3CCCC3)ccc2Cl)c1,inactive: -9.08%,
O=c1c2oc3ccccc3c2n(Cc2ccccc2F)c(=O)n1Cc1ccc2c(c1)OCO2,inactive: 22.8% [at 46.1 µM],
COc1ccccc1NC(=O)N1CCN(c2nnc(C)c3c(C)n(-c4ccccc4)nc23)CC1,inactive: -4.65% [at 46.1 µM],
Cc1ccc(NC(C)C(=O)N/N=C/c2ccc([N+](=O)[O-])s2)cc1 (stereo not given),,"inconclusive: 11.2 µM [inhibitor, single point]"
COc1ccc(C2CC(=O)C3=C(C2)Nc2ncnn2C3c2ccccc2C)c(OC)c1 (stereo not given),inactive: -8.47%,
Cc1cc(C)nc(SCc2nnc(SCC(=O)N3CCCc4ccccc43)n2C)n1,inactive: -0.626%,
NC(=O)c1ccccc1NC(=O)CCCc1ccccc1,,"inconclusive: 12.6 µM [activator, partial curve, poor fit]"
Cc1ccc(C(=O)Nc2ccc(N3CCN(C(=O)c4cccs4)CC3)cc2)c(Cl)c1,,"inconclusive: 12.6 µM [inhibitor, partial curve, poor fit]"
COc1ccc(C(=O)NCc2ncccc2C)cc1OC1CCN(C(C)=O)CC1,inactive: 36.5%,
O=C1C2C(C(=O)N1c1ccccc1)N1CCCN1C2c1ccccc1 (stereo not given),inactive: -10.1%,
CCCn1cnc2cc(NCc3ccc(Br)cc3)ccc21,,"inconclusive: 35.5 µM [inhibitor, single point]"
O=C(NCc1ccccc1)c1ccccc1OCC(=O)N1CCCCC1,inactive: -5.94%,
CCN(CC)c1ccc(N=Nc2nn(C)c(C)c2[N+](=O)[O-])cc1,,"inconclusive: 0.631 µM [activator, partial curve, poor fit]"
NC(=O)c1ccc[n+](CC(=O)c2ccc(NC(=O)c3ccccc3)cc2)c1,,"inconclusive: 3.55 µM [inhibitor, partial curve, poor fit]"
CCCOc1ccc(Oc2ccc(S(=O)(=O)N3CCN(C)CC3)cn2)cc1,,"inconclusive: 35.5 µM [inhibitor, partial curve, poor fit]"
O=C1C=C(c2cccs2)C[C@H](c2ccccc2)[C@H]1n1nnc([N+](=O)[O-])n1,,"inconclusive: 15.8 µM [inhibitor, partial curve, poor fit]"
O=C(Nc1ccc(-c2csc(-c3ccccc3)n2)cc1)c1ccccc1Cl,inactive: -17.6%,

Compound,"activity change, negative = inhibition",Potency
Cc1cccc2cc(CN(C(=O)c3cnccn3)C3CCCCC3)c(Cl)nc12,inactive: -16.1%,
COc1ccc(Cn2c(C3CC3)nc3ccc(NC(=O)c4ccco4)cc3c2=O)cc1,,"inconclusive: 2.24 µM [activator, partial curve, poor fit]"
COc1ccc(N2CCN(C(=O)CSc3nc(-c4ccccc4)no3)CC2)cc1,,"inconclusive: 35.5 µM [activator, single point]"
O=C(COc1ccc(CO)cc1Cl)Nc1ccc(F)cc1,,"inconclusive: 9.2 µM [inhibitor, partial curve]"
CNC(=S)Nc1ccc(C23CC4CC(CC(C4)C2)C3)cc1,,"inconclusive: 35.5 µM [inhibitor, single point]"
CC1N(C)c2cc(NC(=O)c3ccco3)ccc2C1(C)C (stereo not given),,"inconclusive: 0.651 µM [activator, full curve]"
Cc1ccc(NC(=O)Cn2nc(C)c3nn(-c4ccc(Cl)cc4)c(C)c3c2=O)cc1F,inactive: -19% [at 46.1 µM],
COc1ccc(C(=O)OC2C(OC)OCC(O)C2O)cc1 (stereo not given),inactive: -1.62% [at 46.1 µM],
S=C(NCCc1ccccn1)Nc1cccc(Cl)c1,,"inconclusive: 12.6 µM [activator, partial curve, poor fit]"
CCOc1ccc(NC(=S)N(Cc2ccc(N(C)C)cc2)Cc2ccco2)cc1,,"inconclusive: 10 µM [inhibitor, partial curve, poor fit]"
O=C(NCc1ccccc1)c1ccc(CS(=O)(=O)c2c(Cl)cccc2Cl)o1,,"inconclusive: 7.08 µM [inhibitor, partial curve, poor fit]"
Oc1cncc(Cc2ccccc2)c1,,"inconclusive: 4.47 µM [inhibitor, partial curve, poor fit]"
Cc1nc(-c2ccccc2)sc1C(=O)O,inactive: 13.4% [at 46.1 µM],
CCOc1ccc(CNS(=O)(=O)c2ccc3c(c2)CC(C)N3C(C)=O)cc1OC (stereo not given),inactive: -4.56% [at 46.1 µM],
COc1ccc(OC)c(CN2CCSCC2)c1,inactive: -0.382%,
CCOC(=O)c1ccc(-n2c(O)c(/C=N/NC(=O)C3COc4ccccc4O3)c3ccccc3c2=O)cc1 (stereo not given),,"inconclusive: 12.6 µM [inhibitor, partial curve, poor fit]"
O=C(NCCc1ccc(Cl)cc1)c1cnc2sc(N3CCCC3)nn2c1=O,inactive: -3.78% [at 46.1 µM],
CCc1ccccc1NC(=O)C1CCCN(S(=O)(=O)c2ccc3[nH]c(=O)ccc3c2)C1 (stereo not given),inactive: 2.6% [at 46.1 µM],
O=C(c1cccs1)N1CCCc2cc(NS(=O)(=O)c3cc(F)ccc3F)ccc21,inactive: 3.4% [at 46.1 µM],
Cc1csc(NC(=O)CCCC(=O)c2ccccc2)n1,inactive: 14.7%,
CN(C)c1ccc(/C=N/n2c(-c3cccnc3)n[nH]c2=S)cc1,,"inconclusive: 11.2 µM [inhibitor, partial curve, poor fit]"
Cc1cccc(OCCC(=O)Nc2cc(S(=O)(=O)N3CCCCC3)ccc2N2CCOCC2)c1,,"inconclusive: 25.1 µM [inhibitor, single point]"
Clc1ccccc1-c1nc(-c2ccccc2)n[nH]1,,"inconclusive: 2.06 µM [activator, partial curve]"
CC(=O)[C@@]1(O)CC[C@H]2[C@@H]3CCC4=CC(=O)CC[C@]4(C)[C@H]3CC[C@@]21C,,active: 20.6 µM

# Ordered by SMILES length (rising): part of the list above.
Compound,"activity change, negative = inhibition",Potency
O=C(COc1ccc(CO)cc1Cl)Nc1ccc(F)cc1,,"inconclusive: 9.2 µM [inhibitor, partial curve]"
CNC(=S)Nc1ccc(C23CC4CC(CC(C4)C2)C3)cc1,,"inconclusive: 35.5 µM [inhibitor, single point]"
Cc1cccc2cc(CN(C(=O)c3cnccn3)C3CCCCC3)c(Cl)nc12,inactive: -16.1%,

# Following part

Compound,"activity change, negative = inhibition",Potency
CN(C(=O)COC(=O)c1sc2ccccc2c1Cl)C1CCCCC1,inactive: 11.8%,
CCN(CC)c1ccc(C(=O)n2cnc3ccccc32)cc1,,"inconclusive: 1 µM [inhibitor, single point]"
O=C(CCNC(=O)Cn1ccc2ccccc2c1=O)NCCc1ccc(Cl)cc1,inactive: -2.67%,
COc1ccc(-n2cccc2/C=C2\C(=N)N3N=C(C(C)C)SC3=NC2=O)cc1,,"inconclusive: 4.47 µM [inhibitor, full curve, poor fit]"
Cc1cc(C(=O)NCCc2ccc(Cl)cc2)c2c(C)nn(-c3ccccc3)c2n1,inactive: 13.3% [at 46.1 µM],
CCN(C(=O)c1ccc2c(Cl)c3c(nc2c1)CCC3)c1cccc(C)c1,,"inconclusive: 29.1 µM [inhibitor, single point]"
COc1n[nH]c(C(=O)Nc2nc3ccccc3s2)c1[N+](=O)[O-],,"inconclusive: 2.82 µM [activator, full curve, poor fit]"
Cn1cccc1C(=O)NCCc1ccccc1,,"inconclusive: 11.2 µM [inhibitor, partial curve, poor fit]"
COc1cccc(-n2nnc3c(=O)n(Cc4ccc(Br)cc4)cnc32)c1,,"inconclusive: 16.4 µM [inhibitor, partial curve, poor fit]"
CCOC(=O)C1=C(COC(=O)CSc2ccc(C)cc2C)NC(=O)NC1C (stereo not given),inactive: -9.66%,
CC1(C(=O)OCC(=O)Nc2nc(-c3ccc(F)c(F)c3)cs2)CC1(Cl)Cl (stereo not given),,"inconclusive: 22.4 µM [inhibitor, partial curve, poor fit]"
CCOc1ccccc1C(=O)N1CCC(n2nnc3cc(C(F)(F)F)ccc32)CC1,,"inconclusive: 18.3 µM [inhibitor, single point]"
Cc1ccc2oc(=O)c3cnn(CC(=O)N4CCN(c5cccc(Cl)c5)CC4)c3c2c1,inactive: -7.95% [at 46.1 µM],
O=C(Cc1ccc(F)cc1)Nc1nnc(SCC(=O)N2CCCCC2)s1,,"inconclusive: 3.16 µM [inhibitor, single point]"
Cn1nc(C(F)(F)F)c2cc(C(=O)Nc3ccc(C(F)(F)F)cc3)sc21,,"inconclusive: 35.5 µM [inhibitor, partial curve, poor fit]"
Cc1cc(CN2CCN(CCC#N)CC2)c(O)c(C2(C)CCCCC2)c1,,"inconclusive: 10 µM [inhibitor, partial curve, poor fit]"
CCOC(=O)c1[nH]c(C)c(CCC(=O)N2CCN(c3cc(C)ccc3C)CC2)c1C,,"inconclusive: 1.78 µM [inhibitor, partial curve, poor fit]"
COc1ccccc1-c1nnc(NC(=O)c2ccc(S(=O)(=O)N(C)Cc3ccccc3)cc2)o1,,"inconclusive: 12.6 µM [inhibitor, single point]"
CCOC(=O)c1c(C)[nH]c(C(=O)COC(=O)c2ccco2)c1C,,"inconclusive: 4.47 µM [inhibitor, single point]"
Cc1ccc(NC(=O)c2nc(S(=O)(=O)Cc3ccc(F)cc3)ncc2Cl)cc1C,,"inconclusive: 35.5 µM [inhibitor, single point]"
Cc1ccccc1CN1C(=O)c2ccccc2Sc2ccc(C(=O)NCCc3ccccc3)cc21,,"inconclusive: 10 µM [inhibitor, partial curve, poor fit]"
O=C(COC(=O)c1sc2ccccc2c1Cl)NCC1CCCCC1,inactive: 20.9%,

# Full records as entered above.
# CCOC(=O)c1c(C)[nH]c(C(=O)COC(=O)c2ccco2)c1C as listed: Potency: inconclusive: 4.47 µM [inhibitor, single point]
# Cc1ccc2oc(=O)c3cnn(CC(=O)N4CCN(c5cccc(Cl)c5)CC4)c3c2c1 as listed: activity change, negative = inhibition: inactive: -7.95% [at 46.1 µM]
